Results as given in PubChem BioAssay AID540256 (National Center for Advancing Translational Sciences (NCATS), 2011).
The campaign covered roughly 300,000 compounds. About 3,700 (1.2%) were called active. Inconclusive means that the source gave no clear call. Such entries were picked first, then a sample of the others. Calls come from the whole dose curve; tested in HEK293 cells. Potencies of inconclusive entries are doubtful fits and often do not repeat.

Test: qHTS for Inhibitors of binding or entry into cells for Lassa Virus; note: nearly all actives have a fitted effect of over 50% in size
Conditions: Lassa virus pseudotype entry inhibition, cell reporter; activity change, negative = inhibition: at 37.9 µM (top of the series) unless noted
% is set by controls: 0 for no effect and ±100 for the full control effect; potency is the fitted concentration of half-maximal effect.

Structure (SMILES)	Potency	activity change, negative = inhibition
CCN(CC(=O)Nc1cc(Cl)ccc1C)C(=O)Cn1c(=O)cnc2ccccc21	inconclusive: 6.31 µM [inhibitor, single point]	
Cc1cc(Cl)ccc1OCC(=O)Nc1c(C(=O)c2ccccc2)oc2ccccc12		inactive: 2.4% [at 46.1 µM]
O=C(Nc1c2c(nn1-c1ccc(F)cc1)CSC2)c1ccc(S(=O)(=O)N2CCOCC2)cc1		inactive: -2.4%
Cc1csc(=Nc2cccnc2)n1CC1CCCCC1		inactive: 5.44%
Cc1ccc(NC(=O)Nc2cccs2)c(Cl)c1	inconclusive: 29.1 µM [inhibitor, single point]	
CCOc1cc(N2CCOCC2)c(OCC)cc1NC(=O)Cn1[nH]c(=O)c2ccccc2c1=O		inactive: 8.31%
COc1ccc(CNC(=O)CSc2n[nH]c(-c3ccc(OC)cc3)n2)cc1	inconclusive: 1.41 µM [inhibitor, full curve, poor fit]	
O=C(O)C1Sc2[nH]c(=O)sc2C2c3cc(Cl)ccc3OC(=O)C12 (configuration not stated)	inconclusive: 29.1 µM [activator, single point]	
Cc1ccc(S(=O)(=O)N2c3ccccc3-c3c(ssc3=S)C2(C)C)cc1	inconclusive: 35.5 µM [inhibitor, single point]	
CCOc1cc(CN2CCN(CCc3ccccc3)C(CCO)C2)ccc1OC (configuration not stated)	inconclusive: 1.26 µM [inhibitor, single point]	
Cn1c(=O)cc(SCC(=O)N2CCN(c3ccccc3F)CC2)c2cc(Cl)ccc21		inactive: -21.9% [at 46.1 µM]
O=C(NCc1ccccc1Cl)c1cc(=O)[nH]c2ccc(S(=O)(=O)N3CCCCC3)cc12		inactive: 29.4% [at 46.1 µM]
CCC1CCCCN1C(=O)c1nn(-c2ccc(OC)cc2)c(=O)c2c1c1ccccc1n2C (configuration not stated)		inactive: -3.52% [at 46.1 µM]
CC(C)n1cc(/C=C2/NC(=O)N(c3cccc(Cl)c3)C2=O)c2ccccc21		inactive: 3.54%
COc1ccc(C2Nc3ccccc3C(=O)N2Cc2ccco2)cc1COc1ccccc1F (configuration not stated)	inconclusive: 3.98 µM [inhibitor, partial curve, poor fit]	
CCOC(=O)c1nn(-c2ccc(C)cc2)cc1C(=O)c1ccccc1		inactive: 10.4%
NNC(=O)c1oc2nc(-c3ccccc3)cc(-c3ccccc3)c2c1N	inconclusive: 7.08 µM [inhibitor, partial curve, poor fit]	
O=S(=O)(NC1CCCCCCC1)c1cccs1	inconclusive: 0.184 µM [inhibitor, single point]	
COc1ccccc1NC(=O)c1ccc(C)s1	inconclusive: 3.16 µM [activator, partial curve, poor fit]	
Cc1ccoc1C(=O)NCCNc1ccc(Cl)cc1[N+](=O)[O-]		inactive: 4.72%
CC(=O)Oc1ccc(/C=N/NC(=O)CCSc2ccccc2)cc1	inconclusive: 22.4 µM [inhibitor, single point]	
COc1ccccc1NC(=O)CCS(=O)(=O)c1cc2c3c(c1)CCN3C(=O)CC2		inactive: 27.4% [at 46.1 µM]
Cc1cc(=O)[nH]c2nnc(-c3ccc(Cl)cc3)n12	inconclusive: 12.6 µM [inhibitor, partial curve, poor fit]	
Cc1ccccc1CSc1nnc(-c2ccccn2)n1N	inconclusive: 14.6 µM [activator, single point]	

Structure (SMILES)	Potency	activity change, negative = inhibition
O=C(CSCc1ccccc1)Nc1ccc(Cl)cn1		inactive: 4.48%
CCCCN1C(=O)C(=O)N(CC(=O)c2ccc3c(c2)OCO3)C1=O		inactive: 0.155%
COC(=O)c1cc(NC(=O)c2sc3ncn(Cc4cccc(F)c4)c(=O)c3c2C)cc(C(=O)OC)c1	inconclusive: 12.6 µM [activator, single point]	
CCOc1ccc(C(=O)NCCn2cc(SCC(=O)Nc3ccccc3)c3ccccc32)cc1	inconclusive: 35.5 µM [inhibitor, single point]	
COCCN(Cc1cn(C)nc1-c1ccccc1F)C(C)C		inactive: 7.87% [at 46.1 µM]
COc1ccc(OC)c(S(=O)(=O)N2CCC(C(=O)N(C)Cc3ccccc3)CC2)c1	inconclusive: 35.5 µM [inhibitor, single point]	
Cc1ccc(-n2cc(CN3CCNC(=O)CC3)c(-c3ccc(F)cc3)n2)cc1		inactive: 3.45%
O=C(CCc1ccccc1)Nc1nnc(-c2ccc3c(c2)OCCO3)o1	inconclusive: 3.16 µM [activator, single point]	
COc1ccc(Br)cc1/C=N/N1C(=O)CSC1=S	inconclusive: 1.78 µM [activator, full curve, poor fit]	
CCCCc1ccc(NC(=O)N2CCNC(=O)C2CC(=O)Nc2ccsc2C(=O)OC)cc1 (configuration not stated)		inactive: -14.6%
COC(=O)c1sc(N)c(C(=O)OC)c1CSc1nc2sc3c(c2c(=O)n1C)CCC3	inconclusive: 29.1 µM [inhibitor, single point]	
CC(=O)c1ccc2c(c1)Cc1cc(C(C)=O)ccc1-2	inconclusive: 12.6 µM [inhibitor, single point]	
CCC1CCCCN1C(=O)c1ccc2c(c1)C(=O)N(c1ccc(C)cc1)C2=O (configuration not stated)	inconclusive: 3.98 µM [inhibitor, single point]	
NNC(=O)CCc1c[nH]c2ccccc12		inactive: -0.923%
Cc1c(Cl)cccc1NC(=O)CSc1nccn1C	inconclusive: 11.2 µM [activator, single point]	
O=C(/C=C/c1ccccc1)NCCSc1ccc(Cl)cc1	inconclusive: 35.5 µM [inhibitor, single point]	
Cn1c(=O)n(C)c2cc(C(N)=O)ccc21	inconclusive: 25.9 µM [activator, single point]	
Cc1cc(C)c2c(CC(=O)Nc3ccc(S(=O)(=O)Nc4ncccn4)cc3)coc2c1		inactive: -13.1% [at 46.1 µM]
Cc1nn(C)cc1/C=N/NC(=S)Nc1ccc(Cl)cc1Cl		inactive: -2.04%
O=C(Nc1ccccc1)c1nc2ccccc2s1	active: 11.2 µM	
C/C=C(/C)C(=O)O[C@@H]1c2c(ccc3ccc(=O)oc23)OC(C)(C)[C@@H]1OC(=O)/C(C)=C\C	inconclusive: 29.1 µM [inhibitor, single point]	
Cc1cccc(NC(=O)c2cccc(OC(=S)N3CCOCC3)c2)c1		inconclusive: 0.856% [activator]
CCN(CC)c1ccc2cc(-c3nc4ccccc4[nH]3)c(=O)oc2c1	inconclusive: 3.16 µM [inhibitor, full curve]	
